Taken from: PubChem BioAssay AID743454 (Peter MacCallum Cancer Centre, 2014)

Aim: 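Genes whose loss kills vorinostat-resistant colon cancer cells under vorinostat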 (primary screen)
Cells: human HCT116-VR colon cancer cells, selected for vorinostat resistance
Reagents: siRNA pool against human genes, 40 nM siRNA pool
Duration: vorinostat for 24 h, read-out about 72 h after transfection
Treatment: vorinostat at 2.5 µM final
Measured: 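Cell viability by CellTiter-Fluor and caspase 3/7 activity by luminescence, each scaled to mock wells per plate, duplicates averaged, then robust z-scored over all plates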
Scale: viability robust z-score: higher = more viable cells than screen typical; caspase robust z-score: higher = more caspase 3/7 activity than screen typical
Hit rule: 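a knock-down is a hit when classed RV1 or RV2 for lowered viability, or CA1 or CA2 for caspase activation; those lethal without drug were dropped; hits were retested singly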
Shown is one part, drawn at random, of about 18,000 deposited reagents. In the full data, 450 (2.5%) were called active. 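Single biological run; no consistent viability z cut-off exists, so the class columns, not z-scores, define the calls.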

GAD1 (glutamate decarboxylase 1)
- viability hit class: no change
- caspase hit class: no change
- viability robust z-score: -0.7
- caspase robust z-score: 0.29
- Call: inactive

MYD88 (MYD88 innate immune signal transduction adaptor)
- viability hit class: no change
- caspase hit class: no change
- viability robust z-score: -0.72
- caspase robust z-score: -0.1
- Call: inactive

MEIS2 (Meis homeobox 2)
- viability hit class: no change
- caspase hit class: no change
- viability robust z-score: 1.08
- caspase robust z-score: 1.23
- Call: inactive

CBX1 (chromobox 1)
- viability hit class: no change
- caspase hit class: no change
- viability robust z-score: -1.25
- caspase robust z-score: -1.03
- Call: inactive

MUCL3 (mucin like 3)
- viability hit class: no change
- caspase hit class: no change
- viability robust z-score: 0.3
- caspase robust z-score: 0.39
- Call: inactive

TAS2R13 (taste 2 receptor member 13)
- viability hit class: no change
- caspase hit class: no change
- viability robust z-score: 0.84
- caspase robust z-score: -0.17
- Call: inactive

GZMK (granzyme K)
- viability hit class: no change
- caspase hit class: no change
- viability robust z-score: 0.05
- caspase robust z-score: -0.22
- Call: inactive

TCP11L1 (t-complex 11 like 1)
- viability hit class: no change
- caspase hit class: no change
- viability robust z-score: 0.18
- caspase robust z-score: -0.03
- Call: inactive

RASGRF1 (Ras protein specific guanine nucleotide releasing factor 1)
- viability hit class: no change
- caspase hit class: no change
- viability robust z-score: -0.36
- caspase robust z-score: -0.98
- Call: inactive

RPS11 (ribosomal protein S11)
- viability hit class: no change
- caspase hit class: no change
- viability robust z-score: -4.64
- caspase robust z-score: -1.11
- Call: inactive

TTK (TTK protein kinase)
- viability hit class: no change
- caspase hit class: no change
- viability robust z-score: -1.84
- caspase robust z-score: 3.99
- Call: inactive

MYRFL (myelin regulatory factor like)
- viability hit class: no change
- caspase hit class: no change
- viability robust z-score: -1.82
- caspase robust z-score: 0.42
- Call: inactive

MAGI1
- viability hit class: no change
- caspase hit class: no change
- viability robust z-score: -0.38
- caspase robust z-score: -1.07
- Call: inactive

SLC12A9
- viability hit class: no change
- caspase hit class: no change
- viability robust z-score: -0.72
- caspase robust z-score: 2.51
- Call: inactive

RPS17 (ribosomal protein S17)
- viability hit class: no change
- caspase hit class: no change
- viability robust z-score: -3.88
- caspase robust z-score: -1.6
- Call: inactive

OR3A1 (olfactory receptor family 3 subfamily A member 1)
- viability hit class: no change
- caspase hit class: no change
- viability robust z-score: 0.2
- caspase robust z-score: 2.44
- Call: inactive

ZNF805 (zinc finger protein 805)
- viability hit class: no change
- caspase hit class: no change
- viability robust z-score: 1.36
- caspase robust z-score: 0.64
- Call: inactive

JPH3 (junctophilin 3)
- viability hit class: no change
- caspase hit class: no change
- viability robust z-score: 1.67
- caspase robust z-score: -0.21
- Call: inactive

PAM16 (presequence translocase associated motor 16)
- viability hit class: no change
- caspase hit class: no change
- viability robust z-score: -0.24
- caspase robust z-score: -0.71
- Call: inactive

DRD1 (dopamine receptor D1)
- viability hit class: no change
- caspase hit class: no change
- viability robust z-score: 0.81
- caspase robust z-score: -0.18
- Call: inactive

VPS26A (VPS26 retromer complex component A)
- viability hit class: no change
- caspase hit class: no change
- viability robust z-score: 0.26
- caspase robust z-score: -0.75
- Call: inactive

Ordered by “caspase robust z-score” (descending): some entries from above
DRD1 (dopamine receptor D1)
- viability hit class: no change
- caspase hit class: no change
- viability robust z-score: 0.81
- caspase robust z-score: -0.18
- Call: inactive

PAM16 (presequence translocase associated motor 16)
- viability hit class: no change
- caspase hit class: no change
- viability robust z-score: -0.24
- caspase robust z-score: -0.71
- Call: inactive
